Test results: publication PMC8772835
No constants are given. Whether binding was seen depends on the method and setting.

Molecular target: ProSys(1-178), recombinant truncated Prosystemin (the Prosystemin sequence devoid of the Sys region) (tomato (Solanum lycopersicum)) (UniProt P27058)
Test: SEC-MALS; SEC-MALS-QELS on an SEC 2000 column, 0.5 mL/min, PBS 1x, 100 uM PMSF, 1 mM DTT pH 8.0; both purified

binding: no binding
B1: ProSys(1-178), recombinant truncated Prosystemin (the Prosystemin sequence devoid of the Sys region) (domain or fragment, UniProt P27058 1-178)
chain: MGTPSYDIKNKGDDMQEEPKVKLHHEKGGDEKEKIIEKETPSQDINNKDTISSYVLRDDTQEIPKMEHEEGGYVKEKIVEKETISQYIIKIEGDDDAQEKLKVEYEEEEYEKEKIVEKETPSQDINNKGDDAQEKPKVEHEEGDDKETPSQDIIKMEGEGALEITKVVCEKIIVREDL
